From article PMC10840202
Where two headings read alike, the source gives them in different places. Results are given in words; binding and its absence hold for the method and conditions named. Binding seen in cells or lysates may run through a third protein. A yes stands for co-enrichment or nearness to the bait. Other partners may have been found.

Chains of the proteins cited; added tags and fusions are not shown.
UniProt P10275: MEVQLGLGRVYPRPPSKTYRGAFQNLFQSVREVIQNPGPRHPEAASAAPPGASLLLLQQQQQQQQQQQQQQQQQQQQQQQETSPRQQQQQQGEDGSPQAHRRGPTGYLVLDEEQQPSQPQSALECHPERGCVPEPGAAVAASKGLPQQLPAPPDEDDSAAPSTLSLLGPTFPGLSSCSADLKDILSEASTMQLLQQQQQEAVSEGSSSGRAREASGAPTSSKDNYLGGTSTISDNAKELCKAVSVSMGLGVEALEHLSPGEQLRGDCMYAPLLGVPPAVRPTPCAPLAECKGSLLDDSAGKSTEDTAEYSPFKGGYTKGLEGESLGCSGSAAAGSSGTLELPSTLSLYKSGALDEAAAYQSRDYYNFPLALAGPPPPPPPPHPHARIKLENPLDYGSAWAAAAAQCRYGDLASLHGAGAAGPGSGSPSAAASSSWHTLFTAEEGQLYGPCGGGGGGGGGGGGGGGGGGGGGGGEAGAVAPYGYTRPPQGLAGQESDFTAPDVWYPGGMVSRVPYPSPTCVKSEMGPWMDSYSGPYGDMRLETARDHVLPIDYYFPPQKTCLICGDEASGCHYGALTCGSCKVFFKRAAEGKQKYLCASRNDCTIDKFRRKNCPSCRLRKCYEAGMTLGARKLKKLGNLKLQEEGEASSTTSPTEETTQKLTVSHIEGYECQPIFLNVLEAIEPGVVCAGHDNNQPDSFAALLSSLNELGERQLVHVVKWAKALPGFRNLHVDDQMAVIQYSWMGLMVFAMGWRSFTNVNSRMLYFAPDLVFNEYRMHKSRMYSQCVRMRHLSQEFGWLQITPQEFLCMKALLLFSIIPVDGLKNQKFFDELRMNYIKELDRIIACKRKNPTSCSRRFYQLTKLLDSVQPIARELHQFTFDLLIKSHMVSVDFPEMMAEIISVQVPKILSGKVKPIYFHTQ
UniProt P23771: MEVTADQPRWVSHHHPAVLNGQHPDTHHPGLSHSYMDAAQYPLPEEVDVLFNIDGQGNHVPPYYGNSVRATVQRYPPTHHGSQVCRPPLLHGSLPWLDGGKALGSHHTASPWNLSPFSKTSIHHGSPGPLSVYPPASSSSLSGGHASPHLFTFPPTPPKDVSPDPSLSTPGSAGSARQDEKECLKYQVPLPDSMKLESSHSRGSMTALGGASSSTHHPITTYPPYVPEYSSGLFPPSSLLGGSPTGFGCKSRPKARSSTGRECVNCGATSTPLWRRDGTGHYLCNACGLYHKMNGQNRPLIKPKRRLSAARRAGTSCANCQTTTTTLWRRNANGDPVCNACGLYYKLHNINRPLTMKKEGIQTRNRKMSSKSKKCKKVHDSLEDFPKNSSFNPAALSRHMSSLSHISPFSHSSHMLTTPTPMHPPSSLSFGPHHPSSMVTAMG

Legend:
[1] = biological target: androgen receptor (human (endogenous in ZR-75-1, T-47D, MDA-MB-453, MFM-223 cells and human breast tissue)) (UniProt P10275); assay: affinity purification with mass spectrometry; RIME: cells in growth medium cross-linked with 1% formaldehyde for 7 min, chromatin isolated and sonicated, immunoprecipitated with AR antibody on magnetic beads, on-bead digestion, Nano-LC-MS/MS; hits found in 3 of 3 replicates and not in IgG controls
[2] = biological target: androgen receptor (human (endogenous in ZR-75-1, T-47D, MDA-MB-453, MFM-223 cells and human breast tissue)) (UniProt P10275); assay: as above; remark: listed apart in the source

## GATA3 (from UniProt P23771 1-443)
[1]
  binding: binds

B1: FOXA1 (protein, UniProt P55317 1-472)
chain: MLGTVKMEGHETSDWNSYYADTQEAYSSVPVSNMNSGLGSMNSMNTYMTMNTMTTSGNMTPASFNMSYANPGLGAGLSPGAVAGMPGGSAGAMNSMTAAGVTAMGTALSPSGMGAMGAQQAASMNGLGPYAAAMNPCMSPMAYAPSNLGRSRAGGGGDAKTFKRSYPHAKPPYSYISLITMAIQQAPSKMLTLSEIYQWIMDLFPYYRQNQQRWQNSIRHSLSFNDCFVKVARSPDKPGKGSYWTLHPDSGNMFENGCYLRRQKRFKCEKQPGAGGGGGSGSGGSGAKGGPESRKDPSGASNPSADSPLHRGVHGKTGQLEGAPAPGPAASPQTLDHSGATATGGASELKTPASSTAPPISSGPGALASVPASHPAHGLAPHESQLHLKGDPHYSFNHPFSINNLMSSSEQQHKLDFKAYEQALQYSPYGSTLPASLPLGSASVTTRSPIEPSALEPAYYQGVYSRPVLNTS
[2]
  binding: binds
